# The campaign covered roughly 2,100 compounds. About 590 (28%) were called active. This list was built around the results that the source calls inconclusive (neither active nor inactive); the mix of calls is not that of the screen. Calls follow the shape of the dose curve; as a rule, active = well fitted inhibition curve with a large enough effect; inconclusive = small, poorly fitted or top-dose-only effect; inactive = flat fitted curve, though single readings scatter. A potency beside an inconclusive call is a rough fit, not a confirmed value.
# Amino acid sequences for entries named in this document (tags omitted). A change or cut given only in a name is not applied to a line headed by its entry.
# UniProt Q8IUX4: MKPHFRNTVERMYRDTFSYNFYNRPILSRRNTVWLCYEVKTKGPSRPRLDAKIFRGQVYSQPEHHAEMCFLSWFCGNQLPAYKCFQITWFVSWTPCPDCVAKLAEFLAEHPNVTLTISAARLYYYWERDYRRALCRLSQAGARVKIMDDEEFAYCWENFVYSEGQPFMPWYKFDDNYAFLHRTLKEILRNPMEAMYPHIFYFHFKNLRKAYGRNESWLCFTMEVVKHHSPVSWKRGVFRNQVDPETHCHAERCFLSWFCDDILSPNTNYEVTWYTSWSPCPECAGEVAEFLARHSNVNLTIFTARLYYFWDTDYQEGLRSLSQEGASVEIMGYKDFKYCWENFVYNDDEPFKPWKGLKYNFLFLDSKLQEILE
# Molecular target: DNA dC->dU-editing enzyme APOBEC-3F (Homo sapiens) (UniProt Q8IUX4)
# Experiment: qHTS for inhibitors of Vif-A3F interactions: Cherry picks; also: nearly all actives have a fitted effect of over 70% in size;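 as to max response: % of control where 0% means no effect; active compounds raise eYFP fluorescence by blocking Vif-driven A3F loss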
# Details: HeLa A3F-eYFP + Vif (tagged APOBEC3F with the HIV-1 protein that degrades it), eYFP fluorescence, 24 h
# Text: The recent discovery and characterization of host restriction factors, which provide a potent defense to invading retroviruses, has provided new targets for antiviral drug development. APOBEC3G (A3G) and APOBEC3F (A3F) are potent cytidine deaminases that block HIV-1 replication; HIV-1 expresses the Vif protein, which counteracts A3G and A3F by binding to them and inducing their proteasomal degradation. The Vif-A3G and Vif-A3F interactions provide two potential targets for development of small molecules which can interfere with the ability of Vif to degrade A3G or A3F. […] To identify inhibitors that can interfere with Vif mediated degradation of A3G and A3F, we have developed Hela cell lines that stably express A3G or A3F tagged with eYFP at the C-terminal end (A3G-eYFP or A3F-eYFP, respectively) and Vif. In the absence of an inhibitor, Vif induces degradation of A3G-eYFP and A3F-eYFP, and the cells are not fluorescent. In the presence of an inhibitor, it is expected that Vif will be unable to degrade A3G-eYFP and/or A3F-eYFP, resulting in an increase in yellow fluorescence. In this assay, Vif A3F was screened against the cherry picks ordered from the MLSMR. NIH Chemical Genomics Center [NCGC] NIH Molecular Libraries Probe Centers Network [MLPCN] MLPCN Grant: MH093245 Assay Submitter (PI): Vinay Pathak, National Cancer Institute
# A3F-Vif cells were harvested from T225 flask and resuspended in phenol free OPTI-MEM medium with 5% FBS. Then 5 uL of 140,000 cells/mL resuspended cells was dispensed into each well of low base Aurora COC 1,536-well plates (black walled, clear bottom) using a Multidrop Combi dispenser. After overnight culture at 37 deg C with 5% CO2, a total of 23 nL of compounds at 5 selected concentrations from the NPC or positive control (2 mM stock of MG132) in DMSO was transferred to each well of the assay plate using a pintool (Kalypsys, San Diego, CA), and the plates were further incubated at 37 deg C with 5% CO2 for 24 hours. After that, the plates were measured on Acumen Explorer (TTP Lab Tech). The fluorescence was detected by 488 nm/Ex and […].
# Potency is read from the fitted curve at half-maximal effect.
SMILES,Potency,max response
Cc1cc(N)cc(C)c1-c1c(Br)cc(N)cc1Br,"inconclusive: 12.5 µM [inhibitor, single point]",–
CN1C/C(=C\c2ccc(N3CCOCC3)cc2)C(=O)/C(=C/c2ccc(N3CCOCC3)cc2)C1,active: 18.4 µM,–
Cc1ccc(-c2cc(-c3ccco3)c3c(N)c(C(=O)NN)oc3n2)cc1,"inconclusive: 20.6 µM [inhibitor, single point]",–
CCOC(=O)N1CCN(/C=C(\C#N)c2nc3ccccc3s2)CC1,"inconclusive: 20.6 µM [inhibitor, single point]",–
O=C1c2ccccc2-c2nc3ccccc3cc21,–,inactive: -23.6%
Cc1cc(-c2ccccc2)c2c3c(c(-c4ccccc4)n2n1)c(=O)n(C)c(=O)n3C,–,inactive: -9.86%
Cn1cc(/C=C/c2ccc3ccccc3n2)c2ccccc21,active: 20.6 µM,–
COc1ccc2nc3sc(C(=O)Nc4cc(Cl)c(OC)cc4OC)cc3cc2c1,–,inactive: -28.2%
O=C(c1ccccn1)C1CCCN(Cc2cn[nH]c2-c2cc3ccccc3o2)C1 (stereo unspecified),–,inactive: 1.54%
COc1ccc(NC(=O)c2ccc3c(c2)c(C)c(C)n3Cc2ccc(F)cc2)cc1,"inconclusive: 3.26 µM [inhibitor, full curve]",–
CCN(CC)c1ccc(/C=C/c2ccnc3ccccc23)cc1,active: 6.51 µM,–
Cc1cc(NC(=O)CSc2nc3c(C)cccc3cc2C#N)no1,active: 7.31 µM,–
Cc1cccc(C)c1OCC(=O)N/N=C/c1ccc2c(c1)OCO2,"inconclusive: 3.14 µM [inhibitor, full curve]",–
C=CCSc1nnc(C)c(/C=C/Nc2ccc(Cl)cc2)n1,active: 20.6 µM,–
COc1cc(-c2noc(C)c2/C=C/c2cccc([N+](=O)[O-])c2)cc(OC)c1OC,"inconclusive: 1.25 µM [inhibitor, partial curve]",–
COc1cc(/C=C/C(=O)c2ccc3c(c2)OCCO3)cc(Br)c1OCC(=O)N(C)C,active: 15.8 µM,–
Cc1nc(SCC(=O)c2ccccc2)c(C#N)c(-c2ccco2)c1C(=O)NCc1ccco1,"inconclusive: 15.8 µM [inhibitor, partial curve]",–
C=CCN1C=CC(=C/C=C(/C#N)C(=O)OCC)C=C1,–,inactive: -21.4%
Cc1cccc(Cn2c(=O)n(CCCC(=O)NCc3ccco3)c(=O)c3ccccc32)c1,"inconclusive: 9.94 µM [inhibitor, partial curve]",–
Cc1ccc(/C=C2/NC(=O)N(Cc3ccccc3)C2=O)s1,"inconclusive: 20.6 µM [inhibitor, single point]",–
COc1cccc(C(=O)Nc2sc3c(c2C#N)CCN(C(C)=O)C3)c1,"inconclusive: 4.44 µM [inhibitor, partial curve]",–
CCOc1ccc(-c2cc(C(=O)NCCc3ccc(OC)c(OC)c3)c3c(-c4ccc(F)cc4)[nH]nc3n2)cc1,"inconclusive: 20.6 µM [inhibitor, partial curve]",–
CC(C)CSC1=NSC2=NC(=O)/C(=C\c3coc4ccccc4c3=O)C(=N)N12,"inconclusive: 29.1 µM [inhibitor, single point]",–

SMILES,Potency,max response
CCOC(=O)c1cccc(NC(=O)N2CC=C(c3c[nH]c4ccccc34)CC2)c1,"inconclusive: 20.6 µM [inhibitor, single point]",–
Cc1c(C(=O)C(=O)N2CCCc3ccccc32)c2ccccc2n1C,"inconclusive: 11.2 µM [inhibitor, partial curve]",–
Cc1sc(-c2cc3c([nH]c2=O)CC(c2ccccc2)CC3=O)nc1-c1ccc(Cl)cc1 (stereo unspecified),active: 1.84 µM,–
O=C(NC(=S)N1CCN(c2ccccn2)CC1)c1ccccc1,–,inactive: 0.282%
CCCCOC(=O)Cn1c2ccc(OC)cc2c2nc3ccccc3nc21,"inconclusive: 22.3 µM [inhibitor, single point]",–
CC(C)C1C(=O)N(Cc2cn(CCC3OCCCO3)nn2)CCS(=O)(=O)N1Cc1ccc(-c2cccc(CO)c2)cc1 (stereo unspecified),–,inactive: -10.5%
Cc1ccc2nc(SCC(=O)Nc3ccc4sc(C)nc4c3)c(C#N)cc2c1,"inconclusive: 18.4 µM [inhibitor, single point]",–
CN(C)c1ccc(/C=C/c2ccnc3ccc(I)cc23)cc1,active: 8.2 µM,–
Cc1ccc(-c2cc(C(=O)N/N=C/C(Br)=C/c3ccccc3)n[nH]2)o1,–,inactive: -23.7%
CC(=O)Nc1cccc(-c2ccnc3c2CC(C(=O)Nc2ccc(Cl)cc2)O3)c1 (stereo unspecified),–,inactive: -18.1%
N#C/C(=C\c1cccc(O)c1)c1nc2ccccc2o1,active: 3.53 µM,–
CCCCNc1c(-c2ccc(SC3CCCCC3)cc2)nc2cnccn12,"inconclusive: 2.23 µM [inhibitor, partial curve]",–
CCCNc1c(F)c(F)c2c(C)c3ccccc3nc2c1F,active: 14 µM,–
Cc1cc(C)c2nc(SCC(=O)N3CC(=O)Nc4ccccc43)c(C#N)cc2c1,active: 3.96 µM,–
C/C(=N\NC(N)=S)C12CC3CC(CC(C3)C1)C2,–,inactive: 3.49%
Cc1ccnc(NC(=O)Nc2ccc3c(c2)N(C)C(=O)CS3)c1,"inconclusive: 18.4 µM [inhibitor, single point]",–
CC(C)Cn1c(N)c(C(=O)COC(=O)c2ccc([N+](=O)[O-])o2)c(=O)n(C)c1=O,–,inactive: 3.32%
O=C(Nc1nc2c(F)cccc2s1)c1ccc([N+](=O)[O-])o1,"inconclusive: 23.1 µM [inhibitor, partial curve]",–
COc1ccc(OCCCC(=O)N2CCN(S(=O)(=O)c3cccc(F)c3)CC2)cc1,–,inactive: -3.23%
COc1cccc(/C(O)=C/c2nc3ccc(C(=O)NCCc4ccc(Cl)cc4)cc3[nH]c2=O)c1,active: 8.2 µM,–
CN(C)c1ccc(/C=C/c2nccc3ccccc23)cc1,active: 18.4 µM,–
Cc1ccc(NC(=O)/C(C#N)=C/c2ccc(C)s2)c(C)c1,"inconclusive: 22.3 µM [inhibitor, single point]",–
COc1ccc(-c2ccnc(-c3ccc(O)cc3)n2)cc1,"inconclusive: 2.8 µM [inhibitor, full curve]",–

# Of the compounds above, these contain two or more sulfur atoms:
SMILES,Potency,max response
CC(C)CSC1=NSC2=NC(=O)/C(=C\c3coc4ccccc4c3=O)C(=N)N12,"inconclusive: 29.1 µM [inhibitor, single point]",–
Cc1ccc2nc(SCC(=O)Nc3ccc4sc(C)nc4c3)c(C#N)cc2c1,"inconclusive: 18.4 µM [inhibitor, single point]",–

# Source: PubChem BioAssay AID651814 (National Center for Advancing Translational Sciences (NCATS), 2012)
